In the supplement of paper PMC6078165:

Test system: MDAMB231
Experiment: relative JC-1 red fluorescence (viability) vs pre-drug, coculture with fibroblast (fraction); higher = more viable cancer cells
Procedure: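 JC-1 labelled TNBC cells cocultured 1:1 (1,500 cells each) with CellTrace Violet stained primary or stromal fibroblasts in 384-well plates in FluoroBrite medium, treated with one of 42 anticancer drugs at 0.1, 1, 10 or 100 uM. JC-1 red fluorescence (mitochondrial integrity in cancer cells only) was read by plate reader every 8 h for 72 h. Values are normalised to each well's pre-drug value. The stock of one drug was tenfold lower, so its dose labels may be too high.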

N.N.[Cl][Pt][Cl] [Cisplatin]
relative JC-1 red fluorescence
Details | 8 h | 16 h | 24 h | 32 h | 40 h | 48 h | 56 h | 64 h | 72 h
0.1 µM, coculture fibroblast: C12385 | 0.7903 ± 0.0036 | 0.742 ± 0.017 | 0.707 ± 0.024 | 0.672 ± 0.03 | 0.619 ± 0.041 | 0.597 ± 0.038 | 0.564 ± 0.047 | 0.564 ± 0.048 | 0.554 ± 0.054
0.1 µM, coculture fibroblast: H6013 | 0.89 ± 0.034 | 0.83 ± 0.012 | 0.8 ± 0.022 | 0.777 ± 0.038 | 0.736 ± 0.031 | 0.713 ± 0.01 | 0.697 ± 0.01 | 0.678 ± 0.018 | 0.6331 ± 0.0017
0.1 µM, coculture fibroblast: H6019 | 0.728 ± 0.026 | 0.6663 ± 0.0054 | 0.617 ± 0.032 | 0.5887 ± 0.0058 | 0.539 ± 0.016 | 0.525 ± 0.013 | 0.484 ± 0.014 | 0.464 ± 0.01 | 0.435 ± 0.012
0.1 µM, coculture fibroblast: H6076 | 0.873 ± 0.011 | 0.789 ± 0.0088 | 0.7407 ± 0.0072 | 0.704 ± 0.014 | 0.667 ± 0.017 | 0.626 ± 0.023 | 0.597 ± 0.017 | 0.578 ± 0.021 | 0.564 ± 0.015
0.1 µM, coculture fibroblast: H6231 | 0.9088 ± 0.0047 | 0.811 ± 0.035 | 0.739 ± 0.037 | 0.679 ± 0.036 | 0.63 ± 0.029 | 0.596 ± 0.037 | 0.562 ± 0.033 | 0.541 ± 0.043 | 0.522 ± 0.039
0.1 µM, coculture fibroblast: HADF | 0.8754 ± 0.0053 | 0.8356 ± 0.001 | 0.791 ± 0.011 | 0.75 ± 0.017 | 0.714 ± 0.016 | 0.67 ± 0.025 | 0.66 ± 0.015 | 0.657 ± 0.031 | 0.609 ± 0.043
0.1 µM, coculture fibroblast: HCFa | 0.897 ± 0.011 | 0.846 ± 0.025 | 0.802 ± 0.024 | 0.77 ± 0.023 | 0.7301 ± 0.0043 | 0.672 ± 0.0079 | 0.6327 ± 0.004 | 0.597 ± 0.015 | 0.54 ± 0.026
0.1 µM, coculture fibroblast: HCPF | 0.916 ± 0.093 | 0.853 ± 0.12 | 0.789 ± 0.15 | 0.76 ± 0.15 | 0.706 ± 0.16 | 0.661 ± 0.17 | 0.618 ± 0.17 | 0.59 ± 0.18 | 0.575 ± 0.18
0.1 µM, coculture fibroblast: HHSteC | 0.8802 ± 0.0058 | 0.84 ± 0.017 | 0.794 ± 0.029 | 0.731 ± 0.042 | 0.684 ± 0.044 | 0.649 ± 0.054 | 0.61 ± 0.054 | 0.593 ± 0.064 | 0.558 ± 0.074
0.1 µM, coculture fibroblast: HMF | 0.848 ± 0.019 | 0.767 ± 0.031 | 0.7 ± 0.026 | 0.649 ± 0.015 | 0.601 ± 0.0076 | 0.5558 ± 0.0026 | 0.5246 ± 0.00053 | 0.511 ± 0.0088 | 0.501 ± 0.0081
0.1 µM, coculture fibroblast: HPFa | 0.9332 ± 0.0031 | 0.898 ± 0.011 | 0.829 ± 0.011 | 0.78 ± 0.01 | 0.7537 ± 0.00092 | 0.712 ± 0.02 | 0.66 ± 0.017 | 0.627 ± 0.023 | 0.57 ± 0.016
0.1 µM, coculture fibroblast: HUF | 0.805 ± 0.021 | 0.6956 ± 0.0068 | 0.697 ± 0.0081 | 0.587 ± 0.007 | 0.521 ± 0.015 | 0.509 ± 0.014 | 0.461 ± 0.02 | 0.458 ± 0.027 | 0.439 ± 0.032
0.1 µM, coculture fibroblast: Hs5 | 0.904 ± 0.079 | 0.835 ± 0.075 | 0.747 ± 0.054 | 0.689 ± 0.044 | 0.631 ± 0.048 | 0.572 ± 0.042 | 0.532 ± 0.044 | 0.498 ± 0.047 | 0.472 ± 0.042
0.1 µM, coculture fibroblast: Hs27A | 0.877 ± 0.015 | 0.811 ± 0.01 | 0.765 ± 0.017 | 0.734 ± 0.028 | 0.678 ± 0.017 | 0.604 ± 0.024 | 0.613 ± 0.022 | 0.598 ± 0.021 | 0.559 ± 0.023
0.1 µM, coculture fibroblast: Hs343T | 0.834 ± 0.011 | 0.7717 ± 0.0031 | 0.704 ± 0.023 | 0.677 ± 0.028 | 0.625 ± 0.049 | 0.578 ± 0.048 | 0.531 ± 0.06 | 0.512 ± 0.066 | 0.487 ± 0.089
0.1 µM, coculture fibroblast: WS1 | 0.7379 ± 0.0029 | 0.666 ± 0.015 | 0.643 ± 0.011 | 0.576 ± 0.014 | 0.53 ± 0.0059 | 0.516 ± 0.0059 | 0.484 ± 0.0089 | 0.479 ± 0.011 | 0.468 ± 0.0092
1 µM, coculture fibroblast: C12385 | 0.77 ± 0.037 | 0.734 ± 0.034 | 0.718 ± 0.099 | 0.685 ± 0.08 | 0.531 ± 0.14 | 0.46 ± 0.24 | 0.444 ± 0.23 | 0.468 ± 0.25 | 0.475 ± 0.25
1 µM, coculture fibroblast: H6013 | 0.889 ± 0.018 | 0.848 ± 0.024 | 0.813 ± 0.028 | 0.802 ± 0.059 | 0.77 ± 0.069 | 0.748 ± 0.069 | 0.734 ± 0.084 | 0.712 ± 0.095 | 0.671 ± 0.093
1 µM, coculture fibroblast: H6019 | 0.76 ± 0.016 | 0.709 ± 0.023 | 0.668 ± 0.01 | 0.6287 ± 0.0048 | 0.586 ± 0.011 | 0.5729 ± 0.0017 | 0.516 ± 0.012 | 0.494 ± 0.017 | 0.46 ± 0.016
1 µM, coculture fibroblast: H6076 | 0.865 ± 0.034 | 0.782 ± 0.039 | 0.73 ± 0.042 | 0.698 ± 0.04 | 0.651 ± 0.041 | 0.607 ± 0.049 | 0.599 ± 0.049 | 0.585 ± 0.045 | 0.576 ± 0.05
1 µM, coculture fibroblast: H6231 | 0.867 ± 0.028 | 0.7852 ± 0.007 | 0.713 ± 0.016 | 0.683 ± 0.026 | 0.629 ± 0.029 | 0.605 ± 0.048 | 0.581 ± 0.056 | 0.566 ± 0.068 | 0.541 ± 0.069
1 µM, coculture fibroblast: HADF | 0.876 ± 0.0015 | 0.845 ± 0.026 | 0.814 ± 0.034 | 0.778 ± 0.0092 | 0.753 ± 0.018 | 0.727 ± 0.0094 | 0.708 ± 0.0081 | 0.69367 ± 0.00064 | 0.6423 ± 0.0047
1 µM, coculture fibroblast: HCFa | 0.893 ± 0.021 | 0.836 ± 0.0046 | 0.778 ± 0.015 | 0.723 ± 0.022 | 0.675 ± 0.033 | 0.633 ± 0.045 | 0.597 ± 0.052 | 0.567 ± 0.055 | 0.525 ± 0.06
1 µM, coculture fibroblast: HCPF | 0.838 ± 0.048 | 0.764 ± 0.075 | 0.719 ± 0.094 | 0.696 ± 0.11 | 0.644 ± 0.11 | 0.61 ± 0.11 | 0.587 ± 0.11 | 0.569 ± 0.12 | 0.556 ± 0.12
1 µM, coculture fibroblast: HHSteC | 0.8975 ± 0.0046 | 0.8696 ± 0.0059 | 0.826 ± 0.0049 | 0.778 ± 0.012 | 0.749 ± 0.027 | 0.712 ± 0.024 | 0.677 ± 0.036 | 0.658 ± 0.041 | 0.621 ± 0.044
1 µM, coculture fibroblast: HMF | 0.819 ± 0.057 | 0.745 ± 0.058 | 0.693 ± 0.044 | 0.663 ± 0.045 | 0.626 ± 0.037 | 0.592 ± 0.029 | 0.573 ± 0.025 | 0.566 ± 0.01 | 0.547 ± 0.017
1 µM, coculture fibroblast: HPFa | 0.899 ± 0.034 | 0.889 ± 0.049 | 0.864 ± 0.077 | 0.828 ± 0.11 | 0.813 ± 0.12 | 0.799 ± 0.15 | 0.743 ± 0.15 | 0.709 ± 0.15 | 0.655 ± 0.14
1 µM, coculture fibroblast: HUF | 0.821 ± 0.0084 | 0.7148 ± 0.00072 | 0.738 ± 0.015 | 0.64 ± 0.027 | 0.572 ± 0.033 | 0.56 ± 0.032 | 0.515 ± 0.03 | 0.51 ± 0.028 | 0.498 ± 0.028
1 µM, coculture fibroblast: Hs5 | 0.87 ± 0.02 | 0.796 ± 0.02 | 0.736 ± 0.013 | 0.676 ± 0.011 | 0.632 ± 0.007 | 0.5765 ± 0.0011 | 0.55 ± 0.0062 | 0.53383 ± 0.00048 | 0.5143 ± 0.0031
1 µM, coculture fibroblast: Hs27A | 0.8714 ± 0.0061 | 0.8471 ± 0.0055 | 0.7982 ± 0.003 | 0.775 ± 0.032 | 0.741 ± 0.033 | 0.698 ± 0.025 | 0.699 ± 0.039 | 0.686 ± 0.035 | 0.646 ± 0.036
1 µM, coculture fibroblast: Hs343T | 0.844 ± 0.026 | 0.75 ± 0.04 | 0.691 ± 0.049 | 0.655 ± 0.057 | 0.596 ± 0.067 | 0.542 ± 0.074 | 0.5 ± 0.076 | 0.483 ± 0.079 | 0.455 ± 0.092
1 µM, coculture fibroblast: WS1 | 0.724 ± 0.017 | 0.661 ± 0.0059 | 0.597 ± 0.017 | 0.543 ± 0.0096 | 0.493 ± 0.0085 | 0.464 ± 0.0052 | 0.4202 ± 0.0042 | 0.4139 ± 0.0034 | 0.39 ± 0.0053

± gives the standard deviation of the averaged measurements. The reference is the same well before dosing, and untreated signal decays as well.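 Fibroblast labels denote human fibroblasts, mainly primary ones from uterus (C12385, HUF), lung (H6013), bone (Hs27A), adrenal (HADF) and skin (WS1), plus mammary HMF and breast cancer-associated Hs343T. Cancer cells are basal-like or mesenchymal-like triple-negative breast cancer lines. A hit is a response shift exceeding 3x replicate standard deviation. The tissue of the other fibroblasts is not given here.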
